This is an account of results in article PMC7113292.

Chains of the proteins cited; added tags and fusions are not shown. Lines headed by an entry give the natural chain unless they say otherwise; changes in a name come on top. Residues count along the entry.
UniProt P01106: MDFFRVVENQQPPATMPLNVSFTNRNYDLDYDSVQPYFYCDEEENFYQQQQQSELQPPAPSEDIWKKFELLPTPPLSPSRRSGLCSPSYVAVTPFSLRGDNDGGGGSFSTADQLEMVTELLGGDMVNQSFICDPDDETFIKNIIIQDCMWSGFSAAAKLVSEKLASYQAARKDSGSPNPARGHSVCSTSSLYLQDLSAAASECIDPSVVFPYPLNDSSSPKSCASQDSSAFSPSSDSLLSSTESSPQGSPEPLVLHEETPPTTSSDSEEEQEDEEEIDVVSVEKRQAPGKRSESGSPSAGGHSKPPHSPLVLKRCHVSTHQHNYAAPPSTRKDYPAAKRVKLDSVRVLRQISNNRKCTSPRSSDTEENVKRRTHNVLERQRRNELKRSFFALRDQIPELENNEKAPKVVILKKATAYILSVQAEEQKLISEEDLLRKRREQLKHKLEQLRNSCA
Flag-c-Myc: residues 16-454 of P01106
Flag-c-Myc ΔC (1-355): residues 16-370 of P01106
Flag-c-Myc ΔN (144-439): residues 159-454 of P01106
UniProt P61244: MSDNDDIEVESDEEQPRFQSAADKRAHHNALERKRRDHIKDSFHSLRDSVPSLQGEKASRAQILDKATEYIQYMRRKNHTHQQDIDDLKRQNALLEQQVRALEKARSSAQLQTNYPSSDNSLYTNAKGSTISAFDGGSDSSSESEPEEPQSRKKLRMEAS
UniProt Q09472: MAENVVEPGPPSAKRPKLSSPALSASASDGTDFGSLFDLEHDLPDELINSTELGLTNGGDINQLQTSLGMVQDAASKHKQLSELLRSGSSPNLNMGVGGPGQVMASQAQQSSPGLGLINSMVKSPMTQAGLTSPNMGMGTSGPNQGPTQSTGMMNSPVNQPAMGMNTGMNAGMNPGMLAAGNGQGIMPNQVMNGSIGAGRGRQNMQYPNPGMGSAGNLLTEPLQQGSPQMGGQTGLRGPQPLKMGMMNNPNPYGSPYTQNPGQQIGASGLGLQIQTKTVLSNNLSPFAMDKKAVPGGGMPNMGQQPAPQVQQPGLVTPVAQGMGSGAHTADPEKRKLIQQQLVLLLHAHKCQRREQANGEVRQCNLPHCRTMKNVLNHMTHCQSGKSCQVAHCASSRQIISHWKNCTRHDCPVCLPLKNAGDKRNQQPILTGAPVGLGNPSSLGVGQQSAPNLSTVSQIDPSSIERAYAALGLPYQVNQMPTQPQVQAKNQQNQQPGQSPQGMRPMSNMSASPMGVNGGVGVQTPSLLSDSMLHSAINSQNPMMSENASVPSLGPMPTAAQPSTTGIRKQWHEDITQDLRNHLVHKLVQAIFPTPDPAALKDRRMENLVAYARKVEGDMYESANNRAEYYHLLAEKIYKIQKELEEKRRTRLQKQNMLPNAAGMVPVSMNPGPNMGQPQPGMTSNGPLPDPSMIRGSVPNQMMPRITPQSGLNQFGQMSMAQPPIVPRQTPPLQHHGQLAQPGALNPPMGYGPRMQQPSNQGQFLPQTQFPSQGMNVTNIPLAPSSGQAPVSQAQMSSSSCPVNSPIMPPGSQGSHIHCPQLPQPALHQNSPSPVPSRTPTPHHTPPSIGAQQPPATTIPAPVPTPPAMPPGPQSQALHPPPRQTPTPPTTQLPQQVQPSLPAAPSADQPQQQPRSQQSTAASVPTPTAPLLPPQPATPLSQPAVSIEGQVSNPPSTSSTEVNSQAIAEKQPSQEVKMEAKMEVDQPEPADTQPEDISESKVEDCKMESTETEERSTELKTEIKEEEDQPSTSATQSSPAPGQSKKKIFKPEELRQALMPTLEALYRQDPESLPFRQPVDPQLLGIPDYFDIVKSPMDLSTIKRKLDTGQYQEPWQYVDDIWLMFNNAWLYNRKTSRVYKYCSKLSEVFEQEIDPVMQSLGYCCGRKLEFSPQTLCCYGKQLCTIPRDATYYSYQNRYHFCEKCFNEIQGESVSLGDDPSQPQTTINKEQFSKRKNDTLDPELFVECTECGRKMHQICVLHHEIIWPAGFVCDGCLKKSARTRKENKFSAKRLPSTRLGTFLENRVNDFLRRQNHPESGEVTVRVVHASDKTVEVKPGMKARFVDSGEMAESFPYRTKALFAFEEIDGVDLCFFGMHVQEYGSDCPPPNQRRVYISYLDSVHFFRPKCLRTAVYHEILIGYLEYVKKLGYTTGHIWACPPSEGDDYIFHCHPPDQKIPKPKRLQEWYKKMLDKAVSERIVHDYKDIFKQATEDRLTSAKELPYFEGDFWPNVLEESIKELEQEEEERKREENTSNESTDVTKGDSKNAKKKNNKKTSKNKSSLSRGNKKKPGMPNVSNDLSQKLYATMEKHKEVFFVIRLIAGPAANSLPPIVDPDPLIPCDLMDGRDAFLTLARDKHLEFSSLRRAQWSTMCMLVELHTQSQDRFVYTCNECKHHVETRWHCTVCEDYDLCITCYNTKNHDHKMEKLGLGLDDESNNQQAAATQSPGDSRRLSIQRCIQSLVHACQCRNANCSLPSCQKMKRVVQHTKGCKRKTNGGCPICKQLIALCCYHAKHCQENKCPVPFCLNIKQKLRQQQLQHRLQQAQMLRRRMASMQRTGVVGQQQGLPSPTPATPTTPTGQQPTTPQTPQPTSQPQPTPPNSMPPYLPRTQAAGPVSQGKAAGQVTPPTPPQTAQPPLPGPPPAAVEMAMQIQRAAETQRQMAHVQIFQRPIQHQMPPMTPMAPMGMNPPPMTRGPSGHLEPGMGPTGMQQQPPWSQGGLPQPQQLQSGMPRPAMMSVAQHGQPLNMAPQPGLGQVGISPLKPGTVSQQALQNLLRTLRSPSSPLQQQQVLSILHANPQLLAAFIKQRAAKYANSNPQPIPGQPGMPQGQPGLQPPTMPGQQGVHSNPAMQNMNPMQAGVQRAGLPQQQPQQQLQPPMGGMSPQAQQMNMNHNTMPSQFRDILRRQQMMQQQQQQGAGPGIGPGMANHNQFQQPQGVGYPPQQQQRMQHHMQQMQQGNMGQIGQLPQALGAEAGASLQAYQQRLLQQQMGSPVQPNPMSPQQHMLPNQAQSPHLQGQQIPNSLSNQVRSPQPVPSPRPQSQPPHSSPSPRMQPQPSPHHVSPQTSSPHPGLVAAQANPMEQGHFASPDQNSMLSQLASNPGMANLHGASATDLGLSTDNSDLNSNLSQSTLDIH

Where a chain is given by its changes, count along the chain named. In names and notes the source's numbering stands. No constants are given. Whether binding was seen depends on the method and setting. For some assays here: In cells and extracts the contact can be indirect. Some results given as binding are weak or reduced against the parent protein; the word gives no strength. For some assays here: Where a sequence is shown, tags or fusion partners need not be part of it.

In one test the target is Flag-c-Myc (UniProt P01106). Put plainly: co-IP; tagged proteins coexpressed in 293T cells; lysates immunoprecipitated with anti-Flag M2 beads; western blot for the tags.
Another test concerns the target T1, Flag-JMJD1A (WT) (UniProt Q9Y4C1).
T1 sequence: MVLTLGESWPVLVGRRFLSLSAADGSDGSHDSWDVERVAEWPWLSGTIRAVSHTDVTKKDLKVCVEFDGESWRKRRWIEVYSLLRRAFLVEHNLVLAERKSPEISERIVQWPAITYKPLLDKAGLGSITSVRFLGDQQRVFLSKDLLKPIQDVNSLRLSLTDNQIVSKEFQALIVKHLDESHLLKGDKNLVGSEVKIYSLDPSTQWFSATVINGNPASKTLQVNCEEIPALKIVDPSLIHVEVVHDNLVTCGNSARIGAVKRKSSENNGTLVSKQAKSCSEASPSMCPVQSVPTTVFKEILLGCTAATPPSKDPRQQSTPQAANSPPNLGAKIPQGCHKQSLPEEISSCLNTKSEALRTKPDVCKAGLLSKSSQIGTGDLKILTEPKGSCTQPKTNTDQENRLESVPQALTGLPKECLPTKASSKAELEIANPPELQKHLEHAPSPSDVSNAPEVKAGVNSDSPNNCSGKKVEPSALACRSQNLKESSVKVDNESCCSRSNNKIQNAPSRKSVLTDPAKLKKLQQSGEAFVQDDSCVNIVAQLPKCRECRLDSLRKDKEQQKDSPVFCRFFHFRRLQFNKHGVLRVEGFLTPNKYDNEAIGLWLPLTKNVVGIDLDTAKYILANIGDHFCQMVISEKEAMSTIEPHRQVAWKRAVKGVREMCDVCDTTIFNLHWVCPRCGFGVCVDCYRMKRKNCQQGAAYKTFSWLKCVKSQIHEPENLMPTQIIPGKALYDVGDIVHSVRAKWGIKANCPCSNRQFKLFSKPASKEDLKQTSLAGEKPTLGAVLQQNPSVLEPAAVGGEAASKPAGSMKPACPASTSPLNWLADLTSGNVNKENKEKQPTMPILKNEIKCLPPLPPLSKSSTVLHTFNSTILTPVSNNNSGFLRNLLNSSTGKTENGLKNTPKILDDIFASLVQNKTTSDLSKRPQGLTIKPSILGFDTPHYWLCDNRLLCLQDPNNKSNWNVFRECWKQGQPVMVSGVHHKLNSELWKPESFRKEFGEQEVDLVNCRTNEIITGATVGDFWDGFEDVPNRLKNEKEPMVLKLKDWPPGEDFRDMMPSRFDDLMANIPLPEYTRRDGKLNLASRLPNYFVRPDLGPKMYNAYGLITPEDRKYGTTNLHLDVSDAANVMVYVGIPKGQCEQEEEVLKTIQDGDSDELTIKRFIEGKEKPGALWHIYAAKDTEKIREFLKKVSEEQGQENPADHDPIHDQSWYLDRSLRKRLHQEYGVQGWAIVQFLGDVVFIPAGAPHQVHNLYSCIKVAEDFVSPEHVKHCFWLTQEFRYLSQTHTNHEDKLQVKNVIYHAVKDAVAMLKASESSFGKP
The test is described as above.

For another test, the target named is T2, Flag-JMJD1A K918R (UniProt Q9Y4C1).
T2 sequence: T1 sequence with K918R
The description is as above.

The target of test [1] is c-Myc (endogenous, Rv1 cells) (human (endogenous in Rv1)) (UniProt P01106). Put plainly: co-IP; endogenous proteins immunoprecipitated from Rv1 cells with JMJD1A or c-Myc antibodies, western blot for the other. (In general: A western blot detects proteins with antibodies after separation by electrophoresis.)
The next test concerns the target GST-c-Myc (UniProt P01106). Put plainly: pull-down; GST or GST-c-Myc bound on glutathione agarose incubated with recombinant Flag-JMJD1A; western blot with GST or Flag antibodies; both purified.
A further test has as its target Flag-c-Myc ΔN (144-439) (UniProt P01106). Put plainly: co-IP; tagged proteins coexpressed in 293T cells; lysates immunoprecipitated with anti-Flag M2 beads; western blot for the tags.
The next test has as its target Flag-c-Myc ΔC (1-355) (UniProt P01106). Described as above.
The next test concerns the target Flag-Max (UniProt P61244). Described as above.

With “myc-p300 (from UniProt Q09472 1-2414) (enzyme)”, the binding result with Flag-c-Myc is “binds”. Consider “GFP-HUWE1 (from UniProt Q7Z6Z7 1-4374) (enzyme)”, for which the binding entry in the test with Flag-JMJD1A (WT) and with Flag-JMJD1A K918R was “binds” in each case.

B1: JMJD1A (endogenous, Rv1 cells) (protein, UniProt Q9Y4C1 1-1321)
chain: T1 sequence
As to B1, in test [1], the binding result is on record as “binds”.

B2: recombinant Flag-JMJD1A (protein, UniProt Q9Y4C1 1-1321)
chain: T1 sequence
Turning to B2, the binding result with GST-c-Myc is listed as “binds”.

B3: myc-JMJD1A (protein, UniProt Q9Y4C1 1-1321)
chain: T1 sequence
B3: the binding entry in the test with Flag-c-Myc ΔN (144-439) is “no binding”; with Flag-c-Myc, “binds”; in the test with Flag-c-Myc ΔC (1-355), “binds”; in the test with Flag-Max it was “no binding”.

B4: HA-JMJD1A (WT) (protein, UniProt Q9Y4C1 1-1321)
chain: T1 sequence
As for B4, in the test with Flag-c-Myc, the binding result is “binds”.

B5: HA-JMJD1A K918R (protein, UniProt Q9Y4C1 1-1321)
chain: T1 sequence with K918R
For B5, the binding result with Flag-c-Myc is reported as “binds”.
